Experimental data: patent US20220202864A1
Results are given in words; binding and its absence hold for the method and conditions named. Some binding calls cover weakened binding; strength is not graded here.

The chains behind the UniProt entries cited, without tags or fusion partners. Where a name states a change or a piece, a line headed by the entry shows the natural chain unless it says otherwise. Residues count along the entry.
UniProt Q02223, residues 1-54: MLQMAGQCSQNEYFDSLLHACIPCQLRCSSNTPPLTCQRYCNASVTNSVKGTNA
UniProt P01644: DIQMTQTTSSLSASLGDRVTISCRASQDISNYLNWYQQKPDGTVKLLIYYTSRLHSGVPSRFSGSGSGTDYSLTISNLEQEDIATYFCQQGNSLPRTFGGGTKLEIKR

Target: BCMA antigen (UniProt Q02223)
Test: flow cytometry, dual CAR-T cells stained with BCMA antigen

CAR-J4 (from UniProt P01644 1-106) was tested, and the binding was “binds”.
